Target: Acetylcholinesterase (Homo sapiens, UniProt P22303)

Sequences of proteins named here, by UniProt entry; tags and fusion partners are left off. A change or cut given only in a name is not applied to a line headed by its entry.
UniProt P22303: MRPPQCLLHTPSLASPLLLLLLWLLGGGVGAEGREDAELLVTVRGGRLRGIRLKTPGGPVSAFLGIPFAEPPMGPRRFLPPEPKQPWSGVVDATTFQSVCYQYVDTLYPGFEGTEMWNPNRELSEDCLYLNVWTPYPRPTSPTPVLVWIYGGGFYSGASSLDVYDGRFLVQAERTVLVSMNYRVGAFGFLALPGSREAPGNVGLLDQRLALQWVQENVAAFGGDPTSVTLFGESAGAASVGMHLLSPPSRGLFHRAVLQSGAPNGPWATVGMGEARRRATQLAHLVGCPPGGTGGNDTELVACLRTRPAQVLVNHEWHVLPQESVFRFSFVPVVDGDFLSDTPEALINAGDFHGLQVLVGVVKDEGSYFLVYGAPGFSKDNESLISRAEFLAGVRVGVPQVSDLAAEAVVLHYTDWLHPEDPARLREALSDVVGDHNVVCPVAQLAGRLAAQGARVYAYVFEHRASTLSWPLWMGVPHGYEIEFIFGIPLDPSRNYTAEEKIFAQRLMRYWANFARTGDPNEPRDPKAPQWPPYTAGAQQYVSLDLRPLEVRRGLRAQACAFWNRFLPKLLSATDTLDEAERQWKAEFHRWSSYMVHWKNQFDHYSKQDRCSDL

SMILES | Ki
NS(=O)(=O)c1ccc(C(=O)n2[nH]c(=O)c3cc(F)ccc3c2=O)cc1 | 60.8 to 250 nM
NS(=O)(=O)c1ccc(C(=O)n2[nH]c(=O)c3c(F)cccc3c2=O)cc1 | 60.8 to 250 nM
NS(=O)(=O)c1ccc(C(=O)n2[nH]c(=O)c3c([N+](=O)[O-])cccc3c2=O)cc1 | 60.8 to 250 nM
NS(=O)(=O)c1ccc(C(=O)n2[nH]c(=O)c3cc([N+](=O)[O-])ccc3c2=O)cc1 | 60.8 to 250 nM
NS(=O)(=O)c1ccc(C(=O)n2[nH]c(=O)c3ccc(C(=O)O)cc3c2=O)cc1 | 60.8 to 250 nM

Source: ChEMBL document CHEMBL4354803, “Synthesis and biological activity of structurally diverse phthalazine derivatives: A systematic review” (Bioorg Med Chem, 2019)
